{"source": "PubChem BioAssay AID1259323 (Peter MacCallum Cancer Centre, 2017)", "screen": "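Kinase knock-downs that weaken TRPV4 calcium entry after PAR2 activation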 (primary screen)", "system": "human HEK293 cells stably carrying inducible TRPV4", "reagent": "siRNA pool against human genes", "challenge": "PAR2 activation; agonist identity and dose not given", "measured": "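Real-time Fura-2 calcium after PAR2 activation; early peak and later plateau each as % of mock-transfected wells on the plate, mean of two plates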", "direction": "TRPV4 plateau calcium, % of mock: higher = stronger sustained TRPV4 calcium entry than mock; PAR2 peak calcium, % of mock: higher = stronger early PAR2 calcium response than mock", "rule for the call": "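Active when sustained TRPV4 plateau calcium falls below 90% of mock while the early PAR2 peak remains above 79% of mock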", "note": "In all, the deposit lists 715 reagents; this is an unselected part. Over the whole deposit, 91 (13%) got an active call. 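Active pools lower the sustained TRPV4 phase but spare the early PAR2 peak; PAR2 agonist and dose are not stated; pools repeat across wells.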 A number with no mark means an inactive call. No sequences are given here. The record does not give: the amount of reagent, the time to read-out."}
{"gene knocked down": "CAMK1G", "TRPV4 plateau calcium, % of mock": 95.9, "PAR2 peak calcium, % of mock": 90.6}
{"gene knocked down": "TESK2", "TRPV4 plateau calcium, % of mock": 110, "PAR2 peak calcium, % of mock": 104}
{"gene knocked down": "PIM1", "TRPV4 plateau calcium, % of mock": 100, "PAR2 peak calcium, % of mock": 94.7}
{"gene knocked down": "RPS6KL1", "TRPV4 plateau calcium, % of mock": 105, "PAR2 peak calcium, % of mock": 105}
{"gene knocked down": "KDR", "TRPV4 plateau calcium, % of mock": 91.8, "PAR2 peak calcium, % of mock": 94.1}
{"gene knocked down": "DYRK2", "TRPV4 plateau calcium, % of mock": 106, "PAR2 peak calcium, % of mock": 104}
{"gene knocked down": "CDC42BPA", "TRPV4 plateau calcium, % of mock": 103, "PAR2 peak calcium, % of mock": 100}
{"gene knocked down": "PRKCH", "TRPV4 plateau calcium, % of mock": 106, "PAR2 peak calcium, % of mock": 98.5}
{"gene knocked down": "NEK5", "TRPV4 plateau calcium, % of mock": 100, "PAR2 peak calcium, % of mock": 96.6}
{"gene knocked down": "ACVR1C", "TRPV4 plateau calcium, % of mock": 109, "PAR2 peak calcium, % of mock": 99.8}
{"gene knocked down": "SBK1", "TRPV4 plateau calcium, % of mock": 118, "PAR2 peak calcium, % of mock": 109}
{"gene knocked down": "CKS2", "TRPV4 plateau calcium, % of mock": 106, "PAR2 peak calcium, % of mock": 102}
{"gene knocked down": "IP6K1", "TRPV4 plateau calcium, % of mock": 97.7, "PAR2 peak calcium, % of mock": 97.1}
{"gene knocked down": "JAK1", "TRPV4 plateau calcium, % of mock": 93.4, "PAR2 peak calcium, % of mock": 96.8}
{"gene knocked down": "PRKAA1", "TRPV4 plateau calcium, % of mock": 119, "PAR2 peak calcium, % of mock": 112}
{"gene knocked down": "CIB2", "TRPV4 plateau calcium, % of mock": 101, "PAR2 peak calcium, % of mock": 95.7}
{"gene knocked down": "PHKB", "TRPV4 plateau calcium, % of mock": 100, "PAR2 peak calcium, % of mock": 103}
{"gene knocked down": "TRPM7", "TRPV4 plateau calcium, % of mock": "87.1 (active)", "PAR2 peak calcium, % of mock": 79.8}
{"gene knocked down": "UCK1", "TRPV4 plateau calcium, % of mock": 111, "PAR2 peak calcium, % of mock": 108}
{"gene knocked down": "CPNE3", "TRPV4 plateau calcium, % of mock": 109, "PAR2 peak calcium, % of mock": 105}
{"gene knocked down": "GRK5", "TRPV4 plateau calcium, % of mock": 94.5, "PAR2 peak calcium, % of mock": 97.6}
{"gene knocked down": "PAK1", "TRPV4 plateau calcium, % of mock": 99.8, "PAR2 peak calcium, % of mock": 94.5}
{"gene knocked down": "CKB", "TRPV4 plateau calcium, % of mock": 97.2, "PAR2 peak calcium, % of mock": 98.9}
{"gene knocked down": "EPHB4", "TRPV4 plateau calcium, % of mock": 103, "PAR2 peak calcium, % of mock": 102}
{"gene knocked down": "CAMK2G", "TRPV4 plateau calcium, % of mock": 90.3, "PAR2 peak calcium, % of mock": 86.1}
{"gene knocked down": "BRAF", "TRPV4 plateau calcium, % of mock": 96.1, "PAR2 peak calcium, % of mock": 92.7}
{"gene knocked down": "STK33", "TRPV4 plateau calcium, % of mock": 117, "PAR2 peak calcium, % of mock": 104}
{"gene knocked down": "PIK3R5", "TRPV4 plateau calcium, % of mock": "83 (active)", "PAR2 peak calcium, % of mock": 83.9}
{"gene knocked down": "PIK3C2G", "TRPV4 plateau calcium, % of mock": 95, "PAR2 peak calcium, % of mock": 91}
{"gene knocked down": "RPS6KB2", "TRPV4 plateau calcium, % of mock": 91, "PAR2 peak calcium, % of mock": 87}
{"gene knocked down": "PRKCG", "TRPV4 plateau calcium, % of mock": 101, "PAR2 peak calcium, % of mock": 105}
{"gene knocked down": "UCK2", "TRPV4 plateau calcium, % of mock": 104, "PAR2 peak calcium, % of mock": 91.5}
{"gene knocked down": "XYLB", "TRPV4 plateau calcium, % of mock": 105, "PAR2 peak calcium, % of mock": 106}
{"gene knocked down": "IGF1R", "TRPV4 plateau calcium, % of mock": "86.1 (active)", "PAR2 peak calcium, % of mock": 85.3}
{"gene knocked down": "EPHA2", "TRPV4 plateau calcium, % of mock": 101, "PAR2 peak calcium, % of mock": 102}
{"gene knocked down": "PIK3C2B", "TRPV4 plateau calcium, % of mock": "88.8 (active)", "PAR2 peak calcium, % of mock": 87.3}
{"gene knocked down": "MAPK9", "TRPV4 plateau calcium, % of mock": "85.6 (active)", "PAR2 peak calcium, % of mock": 89.7}
{"gene knocked down": "MAP3K13", "TRPV4 plateau calcium, % of mock": 105, "PAR2 peak calcium, % of mock": 102}
{"gene knocked down": "AK7", "TRPV4 plateau calcium, % of mock": 100, "PAR2 peak calcium, % of mock": 98.1}
{"gene knocked down": "MYO3B", "TRPV4 plateau calcium, % of mock": 115, "PAR2 peak calcium, % of mock": 107}

Only “PAR2 peak calcium, % of mock” (2 entries from above):
DYRK2	104
CDC42BPA	100
